Measurements taken from article PMC7484759.
These are yes or no findings as the source states them, for the method shown. In cells and extracts the contact can be indirect. A yes stands for co-enrichment or nearness to the bait. Other partners may have been found. For some assays here: Sequences can lack the tags named with a protein.

Sequences of proteins named here, by UniProt entry; tags and fusion partners are left off.
UniProt Q9UNE7: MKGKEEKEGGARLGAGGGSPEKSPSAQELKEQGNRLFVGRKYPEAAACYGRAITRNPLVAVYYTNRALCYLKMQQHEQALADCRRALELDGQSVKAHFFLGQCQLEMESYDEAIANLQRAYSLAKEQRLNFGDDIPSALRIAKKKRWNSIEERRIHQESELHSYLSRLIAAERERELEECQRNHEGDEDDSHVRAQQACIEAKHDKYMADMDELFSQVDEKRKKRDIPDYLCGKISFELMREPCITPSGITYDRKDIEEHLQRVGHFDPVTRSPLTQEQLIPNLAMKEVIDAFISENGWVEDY

Assays:
HA-NOXA^wt (human) = target: T1, HA-NOXA^wt (human); assay: affinity purification with mass spectrometry; IP with NOXA antibody (clone N-15) and Protein G beads; HEK293T transfected with HA-NOXA 36 h, 1 µM DOX 16 h, cells cross-linked with 0.025% glutaraldehyde before lysis; endogenous NOXA also used as bait; binders defined as proteins not present in the IgG control
T1 sequence: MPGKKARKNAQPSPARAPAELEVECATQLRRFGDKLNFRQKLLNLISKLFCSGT

[1] = target: T2, NOXA (endogenous) (human (endogenous in HeLa)) (UniProt Q13794); assay: as above
T2 sequence: T1 sequence

binding (HA-NOXA^wt (human)): binds | binding [1]: binds
Substance: CHIP (carboxyl-terminus of Hsc70-interacting protein) (from UniProt Q9UNE7 1-303) (enzyme)
